# In the supplement of paper PMC8728848:
# The other results are listed elsewhere or left out.
# Key:
# [1] = target: Neu5Gc(a2-8)Neu5Gc(a2-6)Gal(b1-4)GlcNAc; test: glycan array binding signal (z-score within array); higher = stronger binding; conditions: glycan notation: IUPAC condensed, linker removed
# Procedure, shortened: (§1)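 Glycan array data were curated from 3228 arrays in the Consortium for Functional Glycomics database and kept only where the protein sequence was available. Glycan names were converted to IUPAC-condensed notation, and columns mapping to the same glycan were averaged. The binding signal is a within-array Z-score, averaged across arrays of the same protein sequence at different concentrations or buffers and across linkers. Negative Z-scores can be read as non-binding.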
# [2] = target: Neu5Gc(b2-6)Gal(b1-4)GlcNAc; test: as above; conditions: glycan notation: IUPAC condensed, linker removed
# Procedure, shortened: as §1
binder,measurement,setting,value
"Clec18Av1 (Homo sapiens), A5D8T8 (protein) MLHPETSPGRGHLLAVLLALLGTAWAEVWPPQLQEQAPMAGALNRKESFLLLSLHNRLRSWVQPPAADMRRLDWSDSLAQLAQARAALCGTPTPSLASGLWRTLQVGWNMQLLPAGLVSFVEVVSLWFAEGQRYSHAAGECARNATCTHYTQLVWATSSQLGCGRHLCSAGQAAIEAFVCAYSPRGNWEVNGKTIVPYKKGAWCSLCTASVSGCFKAWDHAGGLCEVPRNPCRMSCQNHGRLNISTCHCHCPPGYTGRYCQVRCSLQCVHGRFREEECSCVCDIGYGGAQCATKVHFPFHTCDLRIDGDCFMVSSEADTYYRARMKCQRKGGVLAQIKSQKVQDILAFYLGRLETTNEVIDSDFETRNFWIGLTYKTAKDSFRWATGEHQAFTSFAFGQPDNHGFGNCVELQASAAFNWNDQRCKTRNRYICQFAQEHISRWGPGS",glycan array binding signal (z-score),[1],0.057
same,glycan array binding signal (z-score),[2],-0.594
